For the test, the system named is HEK293A TEAD-LUC reporter. As to the kind of experiment: TEAD-luciferase reporter activity (YAP activation), robust Z score vs plate; higher = stronger YAP/TEAD activation. Conditions: 24 h. For orientation: In a reporter assay the amount or activity of a reporter protein is the signal.

Molecules are shown by their SMILES. This is one part of the list. Repeats in this data set agree poorly, so a single value says little.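 Human kidney-derived cells stably carry a construct in which eight TEAD-binding elements drive luciferase, measured by luminescence in a drug-repurposing library screen. A hit is any compound whose signal exceeds the plate mean by more than five robust Z scores.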

As to `COc1ccc2c(c1)-c1nn(CCCN(C)C)c3ccc([N+](=O)[O-])c(c13)N2` [Pyrazoloacridine], the TEAD-luciferase reporter activity runs as follows: (compound concentration: 200 nM) inactive: 2.63; (compound concentration: 2 uM) inactive: 0.169; (compound concentration: 10 uM) inactive: 0.314.
The matching figures for `CC(CN1CCN(c2cccc3c2CCCN3)CC1)NC(=O)c1ccc(F)cc1` (centres undefined): inactive: 0.552, inactive: 2.03 and inactive: 1.3.
In the same order, the values of `COc1ccc(-c2csc(CN)n2)cc1OC` are inactive: -0.966, inactive: -1.33 and inactive: -1.09.
In the case of `CC(C)(C)NCC(O)c1ccc(O)c(CO)c1` (centres undefined), the TEAD-luciferase reporter activity (compound concentration: 200 nM) was inactive: 0.123 and the TEAD-luciferase reporter activity (compound concentration: 10 uM) is inactive: -0.0261.
Regarding `CC(C)(C)NCC(O)c1ccc(O)c(CO)c1` (centres undefined) [salbutamol], the TEAD-luciferase reporter activity (compound concentration: 2 uM) is inactive: -0.93.
For `CC(C)(C)NCC(O)c1ccc(O)c(CO)c1` (centres undefined) [R-salbutamol], the TEAD-luciferase reporter activity (compound concentration: 2 uM) is inactive: -0.804.
In the case of `Cc1cc(NC(=O)NC(=O)c2ccccc2N(C)C)ccc1Oc1ncc(Br)cn1`, the TEAD-luciferase reporter activity is, setting by setting: (compound concentration: 200 nM) inactive: -1.11; (compound concentration: 2 uM) inactive: -0.868; (compound concentration: 10 uM) inactive: 1.57.
The matching figures for `CCOC(=O)[C@H](Cc1ccc(OC)cc1)NC(=O)C1(NC(=O)[C@@H](SC(C)=O)C(C)C)CCCC1`: inactive: 3.18, inactive: -0.879 and inactive: -1.5.
As for `O=C(O)CN1C(=O)C(N[C@@H](CCc2ccccc2)C(=O)O)CCc2ccccc21` (some centres undefined) [benazeprilat], the TEAD-luciferase reporter activity (compound concentration: 200 nM) is inactive: 1, the TEAD-luciferase reporter activity (compound concentration: 2 uM) is inactive: -1.7 and the TEAD-luciferase reporter activity (compound concentration: 10 uM) was inactive: -1.02.
Consider `O=C(NCCc1ccc(O)c(O)c1)C12CC3CC(CC(C3)C1)C2` [dopamantine], for which the TEAD-luciferase reporter activity is inactive: -0.378 (compound concentration: 200 nM), inactive: 0.0979 (compound concentration: 2 uM) and inactive: -1.49 (compound concentration: 10 uM).
Take `CCC1c2ncn(CC)c2CCN1C(=S)NC(C)C` (centres undefined): the TEAD-luciferase reporter activity reads like this: (compound concentration: 200 nM) inactive: -0.337; (compound concentration: 2 uM) inactive: 0.243; (compound concentration: 10 uM) inactive: -0.0104.
For the compound `CC(C)c1cccc(C(C)C)c1NC(=O)C1c2ccccc2COc2ccc(Br)cc21` (centres undefined), the TEAD-luciferase reporter activity reads like this: (compound concentration: 200 nM) inactive: -0.0645; (compound concentration: 2 uM) inactive: -1.76; (compound concentration: 10 uM) inactive: -1.19.
With `CN(C)CCOC(C)(c1ccccc1)c1ccccn1` (centres undefined) [doxylamine], for the setting “compound concentration: 2 uM”, the TEAD-luciferase reporter activity is inactive: -0.251.
On to `CN(C)CCOC(C)(c1ccccc1)c1ccccn1` (centres undefined), for which the TEAD-luciferase reporter activity by setting is: (compound concentration: 200 nM) inactive: -0.913; (compound concentration: 10 uM) inactive: -0.621.
For the compound `Cn1cnc([N+](=O)[O-])c1Sc1ncnc2[nH]cnc12` [Azathioprin], the TEAD-luciferase reporter activity was inactive: 1.85 (compound concentration: 200 nM) and inactive: -0.162 (compound concentration: 10 uM).
Consider `Cn1cnc([N+](=O)[O-])c1Sc1ncnc2[nH]cnc12` [azathioprine, CTD], for which the TEAD-luciferase reporter activity (compound concentration: 2 uM) is inactive: 0.701.
`CC(C)(C)[C@]1(O)CCN2C[C@H]3c4ccccc4CCc4cccc(c43)[C@@H]2C1` [butaclamol]: the TEAD-luciferase reporter activity (compound concentration: 200 nM) is inactive: -1.4, the TEAD-luciferase reporter activity (compound concentration: 2 uM) was inactive: -0.875 and the TEAD-luciferase reporter activity (compound concentration: 10 uM) was active: 7.21.
On to `CCCc1c(OCCCCCOc2cc3c(cc2C(C)=O)CCC(C(=O)O)O3)ccc(C(C)=O)c1O` (centres undefined) [Ablukast], for which the TEAD-luciferase reporter activity was inactive: -0.606 (compound concentration: 200 nM), inactive: -0.474 (compound concentration: 2 uM) and inactive: 0.203 (compound concentration: 10 uM).
In the same order, the values of `O=C(O)[C@@H](CC1CCC1)c1cc(Cl)c(OCC(F)(F)F)c(-c2ccc(C(F)(F)F)cc2)c1` are inactive: 0.52, inactive: 0.665 and inactive: 3.52.
As to `C[C@H]1CN(C2COC2)CCN1c1ccc(Nc2cc(-c3ccnc(N4CCn5c(cc6c5CC(C)(C)C6)C4=O)c3CO)cn(C)c2=O)nc1` [Fenebrutinib], the TEAD-luciferase reporter activity by setting is: (compound concentration: 200 nM) inactive: -0.893; (compound concentration: 10 uM) inactive: 0.772.
In the same order, the values of `N=C(N)NC(=O)Cc1c(Cl)cccc1Cl` [guanfacine, IR, Shire] are inactive: 0.327 and inactive: -0.291.
Regarding `N=C(N)NC(=O)Cc1c(Cl)cccc1Cl` [guanfacine, IR], for the setting “compound concentration: 2 uM”, the TEAD-luciferase reporter activity is inactive: -1.16.
Consider `CCCCCCCC(=O)OC[C@H]1O[C@@H](n2ccc(N)nc2=O)[C@@H](O)[C@@H]1O`, for which the TEAD-luciferase reporter activity reads like this: (compound concentration: 200 nM) inactive: -1.69; (compound concentration: 2 uM) inactive: -1.27; (compound concentration: 10 uM) inactive: -0.226.
In the same order, the values of `c1ccc(CN(CC2=NCCN2)c2ccccc2)cc1` are inactive: -2.06, inactive: -1.84 and inactive: -0.6.
In the same order, the values of `CCCCN(CCC1CCCCC1)Cc1ccc(C(=O)N[C@H](CCSC)C(=O)OC)c(-c2ccccc2C)c1` are inactive: -0.36, inactive: 0.723 and inactive: 0.0364.
The matching figures for `CN(C)S(=O)(=O)c1cc2c(c(Cl)c1Cl)OC(C(=O)O)C2` (centres undefined): inactive: -1.4, inactive: -1.13 and inactive: -0.951.
For `CC(C)=CCC1C(=O)N(c2ccccc2)N(c2ccccc2)C1=O` [feprazone], the TEAD-luciferase reporter activity was inactive: 0.585 (compound concentration: 200 nM), inactive: 0.159 (compound concentration: 2 uM) and inactive: 0.998 (compound concentration: 10 uM).
As to `CCOC(=O)C1(c2ccccc2)CCCNC1=O` (centres undefined), the TEAD-luciferase reporter activity was inactive: -1.1 (compound concentration: 200 nM), inactive: -1.12 (compound concentration: 2 uM) and inactive: 1.39 (compound concentration: 10 uM).
Turning to `CC(=O)NC1CCCN(c2nc3ncccc3o2)C1` (centres undefined), the TEAD-luciferase reporter activity was inactive: 0.0893 (compound concentration: 200 nM) and inactive: -0.113 (compound concentration: 10 uM).
As to `COC(=O)Cc1c(C)n(C(=O)c2ccc(Cl)cc2)c2ccc(OC)cc12`, the TEAD-luciferase reporter activity reads like this: (compound concentration: 200 nM) inactive: -1.45; (compound concentration: 2 uM) inactive: -0.967; (compound concentration: 10 uM) inactive: -0.0258.

These data come from the supplement of paper PMC10735217.
